In the supplement of paper PMC7238544:
Structures can show the parent of a compound that is named as a salt. ± gives the standard deviation of the averaged measurements. Some of the results follow. The data scatter; read single values as rough.

Key:
[1] = test system: hAMSC donor 1; assay: Hoechst total cell count ratio vs vehicle control; higher = more cells (less toxicity)
[2] = test system: hAMSC donor 2; assay: as above
[3] = test system: hAMSC donor 1; assay: transgenic luciferase activity (RLU/mg protein) fold change vs vehicle control (ratio); higher = more transgene expression
[4] = test system: hAMSC donor 2; assay: as above
[5] = test system: hAMSC donor 1; assay: transfection efficiency (EGFP+ cells / Hoechst count) fold change vs vehicle control (ratio); hAMSC are human adipose-derived mesenchymal stem cells given an EGFP-luciferase plasmid by lipofection; higher = enhanced transfection
[6] = test system: hAMSC donor 2; assay: as above
[7] = priming compound concentration 0.2 µM
[8] = priming compound concentration 1.7 µM
[9] = priming compound concentration 13 µM

Compound	Hoechst total cell count ratio [1, 7]	Hoechst total cell count ratio [1, 8]	Hoechst total cell count ratio [1, 9]	Hoechst total cell count ratio [2, 7]	Hoechst total cell count ratio [2, 8]	Hoechst total cell count ratio [2, 9]	transgenic luciferase activity [3, 7]	transgenic luciferase activity [3, 8]	transgenic luciferase activity [3, 9]	transgenic luciferase activity [4, 7]	transgenic luciferase activity [4, 8]	transgenic luciferase activity [4, 9]	transfection efficiency [5, 7]	transfection efficiency [5, 8]	transfection efficiency [5, 9]	transfection efficiency [6, 7]	transfection efficiency [6, 8]	transfection efficiency [6, 9]
CC(=O)N1CCN(c2ccc(OCC3COC(Cn4ccnc4)(c4ccc(Cl)cc4Cl)O3)cc2)CC1 (stereo not drawn) [Ketoconazole]	1.08 ± 0.18	1.28 ± 0.094	1.16 ± 0.14	1.67 ± 0.33	1.08 ± 0.021	0.933 ± 0.039	1.94 ± 0.34	3.71 ± 0.21	2.34 ± 1.5	1.13 ± 0.1	1.81 ± 0.44	4.2 ± 1.2	1.56 ± 0.33	1.68 ± 0.34	1.71 ± 0.33	1.17 ± 0.27	1.33 ± 0.11	1.7 ± 0.088
CN1CCC(=C2c3ccccc3CCc3sccc32)CC1 [Pizotyline maleate]	0.934 ± 0.13	1.24 ± 0.16	1.23 ± 0.15	1.48 ± 0.3	1.187 ± 0.0048	1.2 ± 0.021	0.943 ± 0.41	0.765 ± 0.1	0.153 ± 0.044	0.693 ± 0.18	0.748 ± 0.022	0.457 ± 0.31	1.26 ± 0.22	1.07 ± 0.083	0.778 ± 0.16	0.828 ± 0.16	0.832 ± 0.04	0.786 ± 0.088
Clc1cccc(Cl)c1NC1=NCCN1 [Clonidine hydrochloride]	1.25 ± 0.044	1.31 ± 0.029	1.19 ± 0.2	1.33 ± 0.062	1.04 ± 0.021	0.934 ± 0.012	0.68 ± 0.34	2.14 ± 0.65	1.23 ± 0.46	1.02 ± 0.045	0.699 ± 0.12	1.89 ± 1.1	1.2 ± 0.28	1.07 ± 0.076	1.34 ± 0.44	0.857 ± 0.23	0.975 ± 0.086	1.49 ± 0.052
COc1cccc2c1C(=O)c1c(O)c3c(c(O)c1C2=O)C[C@@](O)(C(=O)CO)C[C@@H]3O[C@H]1C[C@H](N)[C@H](O)[C@H](C)O1 [Doxorubicin hydrochloride]	0.74 ± 0.1	0.519 ± 0.073	0.241 ± 0.014	1.03 ± 0.21	0.224 ± 0.021	0.125 ± 0.023	1.22 ± 0.78	2.02 ± 0.57	0.221 ± 0.12	1.36 ± 0.24	0.951 ± 0.2	0.00305 ± 0.005	2.05 ± 0.32	1.19 ± 0.22	0.314 ± 0.058	1.41 ± 0.11	2.77 ± 0.13	0.201 ± 0.12
C[C@]12CC[C@@H]3c4ccc(O)cc4CC[C@H]3[C@@H]1CC[C@@H]2O [Beta-estradiol]	1.11 ± 0.075	1.5 ± 0.065	1.14 ± 0.081	1.39 ± 0.21	0.873 ± 0.029	0.893 ± 0.055	0.667 ± 0.21	0.873 ± 0.24	0.546 ± 0.27	0.821 ± 0.17	0.782 ± 0.059	1.08 ± 0.24	1.18 ± 0.34	0.887 ± 0.23	1.35 ± 0.39	0.895 ± 0.18	1.11 ± 0.29	1.1 ± 0.056
CN1CCN(CCCN2c3ccccc3Sc3ccc(C(F)(F)F)cc32)CC1 [Trifluoperazine hydrochloride]	1.09 ± 0.19	1.34 ± 0.051	1.29 ± 0.089	1.3 ± 0.27	0.95 ± 0.031	1.05 ± 0.088	0.747 ± 0.36	0.709 ± 0.17	0.242 ± 0.11	0.785 ± 0.037	0.341 ± 0.071	0.528 ± 0.2	1.1 ± 0.55	0.945 ± 0.26	0.949 ± 0.41	0.882 ± 0.1	0.952 ± 0.17	0.749 ± 0.019
